Biological target: Cav1.2 (Homo sapiens, UniProt Q13936)
Assay: in vitro

Sequences of proteins named here, by UniProt entry; tags and fusion partners are left off.
UniProt Q13936, whole entry: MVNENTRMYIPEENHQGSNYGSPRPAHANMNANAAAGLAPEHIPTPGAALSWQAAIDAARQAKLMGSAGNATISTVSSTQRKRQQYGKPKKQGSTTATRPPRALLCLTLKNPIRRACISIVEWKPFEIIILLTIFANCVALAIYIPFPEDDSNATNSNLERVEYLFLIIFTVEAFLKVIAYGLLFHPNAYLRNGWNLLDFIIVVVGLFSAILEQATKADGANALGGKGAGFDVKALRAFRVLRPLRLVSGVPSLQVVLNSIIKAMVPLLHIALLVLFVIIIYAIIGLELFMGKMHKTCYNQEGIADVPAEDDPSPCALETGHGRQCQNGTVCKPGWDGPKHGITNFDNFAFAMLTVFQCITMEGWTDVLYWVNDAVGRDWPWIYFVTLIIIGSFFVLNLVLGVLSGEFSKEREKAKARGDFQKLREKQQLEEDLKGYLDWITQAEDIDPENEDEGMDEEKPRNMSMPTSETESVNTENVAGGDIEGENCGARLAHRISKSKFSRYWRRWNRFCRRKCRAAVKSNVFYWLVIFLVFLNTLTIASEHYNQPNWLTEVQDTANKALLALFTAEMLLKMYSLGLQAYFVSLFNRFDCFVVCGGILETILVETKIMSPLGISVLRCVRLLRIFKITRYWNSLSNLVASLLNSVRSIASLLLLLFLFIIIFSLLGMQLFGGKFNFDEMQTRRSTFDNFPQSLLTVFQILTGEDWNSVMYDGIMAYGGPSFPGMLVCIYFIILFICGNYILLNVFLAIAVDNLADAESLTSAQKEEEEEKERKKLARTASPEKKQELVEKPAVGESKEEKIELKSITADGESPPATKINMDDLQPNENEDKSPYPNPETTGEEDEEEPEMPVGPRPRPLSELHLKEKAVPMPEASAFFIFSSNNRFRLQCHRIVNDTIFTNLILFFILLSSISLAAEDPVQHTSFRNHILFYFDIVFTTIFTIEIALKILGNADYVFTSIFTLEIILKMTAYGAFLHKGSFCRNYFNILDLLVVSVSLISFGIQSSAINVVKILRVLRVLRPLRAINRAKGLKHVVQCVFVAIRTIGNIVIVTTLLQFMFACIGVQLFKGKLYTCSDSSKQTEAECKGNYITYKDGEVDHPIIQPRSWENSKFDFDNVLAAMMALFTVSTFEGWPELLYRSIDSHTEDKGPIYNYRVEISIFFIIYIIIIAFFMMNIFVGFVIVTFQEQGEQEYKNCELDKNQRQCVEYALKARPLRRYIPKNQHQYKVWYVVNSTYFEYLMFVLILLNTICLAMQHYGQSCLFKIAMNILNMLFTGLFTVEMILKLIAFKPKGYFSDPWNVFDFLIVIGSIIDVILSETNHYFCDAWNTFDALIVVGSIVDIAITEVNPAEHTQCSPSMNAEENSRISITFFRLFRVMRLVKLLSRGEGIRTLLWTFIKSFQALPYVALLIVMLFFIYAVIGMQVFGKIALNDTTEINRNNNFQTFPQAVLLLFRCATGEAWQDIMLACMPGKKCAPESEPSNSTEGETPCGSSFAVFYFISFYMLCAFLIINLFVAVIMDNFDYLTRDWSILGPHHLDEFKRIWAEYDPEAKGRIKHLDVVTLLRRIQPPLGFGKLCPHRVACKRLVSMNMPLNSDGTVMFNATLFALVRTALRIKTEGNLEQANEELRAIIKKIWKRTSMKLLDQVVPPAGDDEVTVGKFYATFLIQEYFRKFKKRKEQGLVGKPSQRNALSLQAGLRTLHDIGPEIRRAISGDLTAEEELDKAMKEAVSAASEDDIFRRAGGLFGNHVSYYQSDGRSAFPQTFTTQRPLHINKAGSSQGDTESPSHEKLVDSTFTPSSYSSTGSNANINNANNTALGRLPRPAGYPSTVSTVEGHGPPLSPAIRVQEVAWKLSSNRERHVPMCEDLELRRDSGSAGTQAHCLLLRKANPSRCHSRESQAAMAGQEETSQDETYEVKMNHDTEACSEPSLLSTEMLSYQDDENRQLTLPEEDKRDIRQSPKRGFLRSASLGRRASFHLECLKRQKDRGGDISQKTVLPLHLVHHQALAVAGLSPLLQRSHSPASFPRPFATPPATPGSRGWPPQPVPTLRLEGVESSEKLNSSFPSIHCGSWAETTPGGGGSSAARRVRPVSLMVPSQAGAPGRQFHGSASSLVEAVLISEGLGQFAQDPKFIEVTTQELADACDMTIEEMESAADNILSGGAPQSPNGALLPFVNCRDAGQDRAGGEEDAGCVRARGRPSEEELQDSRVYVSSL

## CCCNCC(O)COc1ccccc1C(=O)CCc1ccccc1 (racemic) [PROPAFENONE]
  inhibition at 5 min, 10 µM: 72.5%
